From paper PMC5309844
These are yes or no findings as the source states them, for the method shown. Binding seen in cells or lysates may run through a third protein. Some binding calls cover weakened binding; strength is not graded here.

Protein sequences, listed by entry. Tags and fused reporters are not part of them. Residues count along the entry.
UniProt P08482: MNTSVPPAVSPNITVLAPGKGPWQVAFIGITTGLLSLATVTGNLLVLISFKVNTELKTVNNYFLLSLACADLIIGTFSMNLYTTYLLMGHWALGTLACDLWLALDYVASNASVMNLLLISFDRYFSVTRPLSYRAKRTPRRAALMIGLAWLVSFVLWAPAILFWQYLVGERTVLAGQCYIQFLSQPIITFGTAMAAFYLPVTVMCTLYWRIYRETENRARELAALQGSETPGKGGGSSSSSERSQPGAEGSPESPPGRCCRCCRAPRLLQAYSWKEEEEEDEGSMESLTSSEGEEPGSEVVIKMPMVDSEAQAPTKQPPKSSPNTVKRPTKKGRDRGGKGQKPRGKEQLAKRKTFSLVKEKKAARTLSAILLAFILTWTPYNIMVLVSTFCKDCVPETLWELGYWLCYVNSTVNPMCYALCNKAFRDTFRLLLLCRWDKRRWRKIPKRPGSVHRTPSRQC
UniProt P04785, residues 20-509: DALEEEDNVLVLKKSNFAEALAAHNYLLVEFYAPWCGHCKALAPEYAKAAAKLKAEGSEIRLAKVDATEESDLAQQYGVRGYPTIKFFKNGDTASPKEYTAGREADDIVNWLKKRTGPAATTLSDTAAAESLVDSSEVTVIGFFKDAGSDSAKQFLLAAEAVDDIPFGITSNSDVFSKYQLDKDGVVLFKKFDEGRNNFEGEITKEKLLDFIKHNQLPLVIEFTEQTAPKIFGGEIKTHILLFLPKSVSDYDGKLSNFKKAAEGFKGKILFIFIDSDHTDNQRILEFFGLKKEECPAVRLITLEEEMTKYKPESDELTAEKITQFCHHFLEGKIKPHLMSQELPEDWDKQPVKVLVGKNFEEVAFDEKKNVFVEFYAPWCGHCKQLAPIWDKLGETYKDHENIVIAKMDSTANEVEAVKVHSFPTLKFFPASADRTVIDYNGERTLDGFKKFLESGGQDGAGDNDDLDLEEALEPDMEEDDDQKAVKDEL

Experiments:
Experiment in all cases: co-IP; rat hippocampal tissue lysed in RIPA buffer; equal amounts of total protein precipitated with the appropriate primary antibodies and protein G sepharose at 4 °C overnight; Western blot; normal, chronic epileptic, and control siRNA- or PDI siRNA-infused epileptic animals
[1] = target: NMDA receptor NR2A subunit (rat (endogenous in hippocampus)) (UniProt Q00959)
[2] = target: muscarinic acetylcholine 1 receptor (rat (endogenous in hippocampus)) (UniProt P08482)
[3] = target: NMDA receptor NR1 subunit (rat (endogenous in hippocampus)) (UniProt P35439)

binding [1]: binds
binding [2]: binds weakly
binding [3]: binds
Substance: Protein disulfide isomerase (from UniProt P04785 20-509) (enzyme)
